Assay results reported in PubChem BioAssay AID330 (DTP/NCI, 2004).
The list does not hold the whole screen: it is rich in T/C values a quarter to a half above the control, in often repeated tests (any T/C) and in doses without a T/C. Other doses and runs of a compound stand elsewhere. T/C is the treated group as % of the vehicle group. Some doses have a count of surviving animals in place of a T/C: the source holds a T/C of zero for them, seemingly a mark for toxic or unscored doses. Some survivor counts are full or nearly so, which does not show that the dose was tolerated: the source hardly ever lists a survival T/C far under the control, and the zero likely stands for such cases as well. Counts of survivors are from the toxicity check (mostly the fifth day) where no day follows; animals may have died later. Schedule codes are those of the source, read here as Q, the interval in days (D) or hours (H), X, the number of doses. Some doses were run more than once; the values are given in rising order. For survival time, the PubChem record calls one and a half times the control and up active, and a quarter to a half above the control has no call in these data; cut-offs in other NCI protocols can differ. Some T/C values carry the count of animals alive at the toxicity check (mostly the fifth day); where none is given, no animal had died by that day.

Test system: P388 leukemia ip, CD2F1 mice, survival T/C
Experiment: NCI In Vivo Anticancer Drug Screen. Data for tumor model P388 Leukemia (intraperitoneal) in CD2F1 (CDF1) mice
Settings: T/C endpoint: median survival time, higher T/C = longer survival
[1] = dose: 240.0 mg/kg/injection, schedule: Q01DX005 (ip), vehicle: saline with Tween-80
[2] = dose: 400.0 mg/kg/injection, schedule: Q04DX003 (ip), vehicle: saline
[3] = dose: 100.0 mg/kg/injection, schedule: Q04DX003 (ip), vehicle: saline with Tween-80
[4] = dose: 12.5 mg/kg/injection, schedule: Q01DX005 (ip), vehicle: saline
[5] = dose: 200.0 mg/kg/injection, schedule: Q01DX009 (ip), vehicle: Klucel (hydroxypropylcellulose) (HPC)
[6] = dose: 100.0 mg/kg/injection, schedule: Q01DX005 (ip), vehicle: Klucel (hydroxypropylcellulose) (HPC)
[7] = dose: 50.0 mg/kg/injection, schedule: Q01DX009 (ip), vehicle: Klucel (hydroxypropylcellulose) (HPC)
[8] = dose: 100.0 mg/kg/injection, schedule: Q01DX009 (ip), vehicle: saline
[9] = dose: 200.0 mg/kg/injection, schedule: Q01DX009 (ip), vehicle: saline
[10] = dose: 100.0 mg/kg/injection, schedule: Q04DX003 (ip), vehicle: saline
[11] = dose: 200.0 mg/kg/injection, schedule: Q04DX003 (ip), vehicle: saline
[12] = dose: 200.0 mg/kg/injection, schedule: Q01DX005 (ip), vehicle: saline with Tween-80
[13] = dose: 50.0 mg/kg/injection, schedule: Q01DX005 (ip), vehicle: saline with Tween-80
[14] = dose: 100.0 mg/kg/injection, schedule: Q01DX005 (ip), vehicle: saline with Tween-80
[15] = dose: 60.0 mg/kg/injection, schedule: Q01DX005 (ip), vehicle: saline with Tween-80
[16] = dose: 120.0 mg/kg/injection, schedule: Q01DX005 (ip), vehicle: saline with Tween-80

Cc1cc(COCCN(C)C)on1
survivor count [1]: 0 of 6

CCOC(=O)C(=CNc1cc(C)ccn1)C(=O)OCC
survivor count [2]: 1 of 6

O=C1C=Cc2ccc(O)cc2C1=O
survivor count (dose: 5.0 mg/kg/injection, schedule: Q01DX009 (ip), vehicle: saline): 3 of 6
survivor count (dose: 10.0 mg/kg/injection, schedule: Q04DX003 (ip), vehicle: saline with Tween-80): 2 of 6
survivor count (dose: 20.0 mg/kg/injection, schedule: Q04DX003 (ip), vehicle: saline with Tween-80): 0 of 6
survivor count [3]: 0 of 6
survivor count (dose: 200.0 mg/kg/injection, schedule: Q04DX003 (ip), vehicle: saline with Tween-80): 0 of 6
survivor count (dose: 400.0 mg/kg/injection, schedule: Q04DX003 (ip), vehicle: saline with Tween-80): 0 of 6

NC(N)=N/N=C\c1c2ccccc2cc2ccccc12
T/C (dose: 1.56 mg/kg/injection, schedule: Q01DX009 (ip), vehicle: other): 134 % of control
T/C (dose: 3.13 mg/kg/injection, schedule: Q01DX009 (ip), vehicle: other): 148 % of control
T/C (dose: 6.25 mg/kg/injection, schedule: Q01DX009 (ip), vehicle: other): 144 % of control
T/C (dose: 12.5 mg/kg/injection, schedule: Q01DX009 (ip), vehicle: other): 144 % of control
T/C (dose: 25.0 mg/kg/injection, schedule: Q01DX009 (ip), vehicle: other): 145 % of control

COCc1nnc2c(N)nccn12
survivor count (dose: 400.0 mg/kg/injection, schedule: Q01DX001 (ip), vehicle: Klucel (hydroxypropylcellulose) (HPC)): 0 of 6

O=C1NC2(CCCCC2)C(=O)N1CCCCN(CCCl)CCCl
T/C (dose: 3.0 mg/kg/injection, schedule: Q01DX005 (ip), vehicle: saline): 128 % of control
T/C (dose: 12.0 mg/kg/injection, schedule: Q01DX005 (ip), vehicle: saline): 146 % of control
T/C [4]: 127 % of control [5 of 6 alive]
T/C (dose: 25.0 mg/kg/injection, schedule: Q01DX005 (ip), vehicle: saline): 141 % of control

CCn1c(=O)c2cn[nH]c2n(CC)c1=O
survivor count [5]: 2 of 6

CN1c2ccccc2C(=O)Nc2cnc(Cl)nc21
survivor count [6]: 4 of 5

O=C(NC(=O)C(F)(F)C(F)(F)F)Nc1cccc(F)c1
survivor count [7]: 6 of 6

CN1C(=O)C23SSC1(C)C(=O)N2c1ccccc1C3(C)C (configuration not stated)
survivor count (dose: 50.0 mg/kg/injection, schedule: Q01DX009 (ip), vehicle: suspension in saline): 6 of 6
survivor count [8]: 6 of 6
survivor count [9]: 6 of 6

CCN(CC)CCNc1ccc(C)c2sc3cccc(O)c3c(=O)c12
T/C [7]: 143 % of control
survivor count [5]: 6 of 6

Nc1nn2nnnc2c2ccccc12
survivor count (dose: 200.0 mg/kg/injection, schedule: Q04DX002 (ip), vehicle: saline): 3 of 6

c1ccc(C2CC(c3ccc(C4=NN(c5ccccc5)C(c5ccccc5)C4)cc3)=NN2c2ccccc2)cc1 (configuration not stated)
survivor count [3]: 6 of 6

COc1cc2c(c(Cl)c1OC)CCN(C)CC2c1ccccc1 (configuration not stated)
survivor count (dose: 240.0 mg/kg/injection, schedule: Q01DX005 (ip), vehicle: saline): 0 of 6

Cc1cc(N/N=C/c2c(C)n(C)n(-c3ccccc3)c2=O)c2cc3c(cc2n1)OCO3
survivor count (dose: 50.0 mg/kg/injection, schedule: Q01DX005 (ip), vehicle: Klucel (hydroxypropylcellulose) (HPC)): 0 of 6
survivor count [6]: 0 of 6
survivor count (dose: 200.0 mg/kg/injection, schedule: Q01DX005 (ip), vehicle: Klucel (hydroxypropylcellulose) (HPC)): 0 of 6

O=C(Cc1ccc([N+](=O)[O-])cc1)ON1C(=O)CCC1=O
survivor count [1]: 5 of 6

CC1(C)COC(=O)C1=C(C#N)C#N
survivor count [10]: 0 of 6
survivor count [11]: 3 of 6
survivor count [2]: 3 of 6

CC[C@H]1C[C@H](Cc2ccccc2)CC[C@H]1N1CCCC1
survivor count [12]: 0 of 6

CS(=O)(=O)ON1C(=O)c2ccccc2C1=O
survivor count (dose: 200.0 mg/kg/injection, schedule: Q04DX003 (ip), vehicle: Klucel (hydroxypropylcellulose) (HPC)): 1 of 6

CSc1nccc2ccccc12
survivor count (dose: 100.0 mg/kg/injection, schedule: Q01DX009 (ip), vehicle: other): 6 of 6
survivor count (dose: 200.0 mg/kg/injection, schedule: Q01DX009 (ip), vehicle: other): 3 of 6

CC(=O)c1ccc2oc(C(C)=O)cc2c1
survivor count (dose: 10.0 mg/kg/injection, schedule: Q01DX009 (ip), vehicle: saline with Tween-80): 6 of 6

CCCCCCCCCCCCCCCC[N+](C)(C)CCSCC(N)=O
T/C (dose: 25.0 mg/kg/injection, schedule: Q04DX003 (ip), vehicle: saline): 138 % of control
T/C [10]: 138 % of control
survivor count [10]: 2 of 6
survivor count [11]: 0 of 6

CN=NNCc1ccccc1
T/C [4]: 130 % of control
survivor count [13]: 5 of 5
survivor count [14]: 0 of 5
survivor count [12]: 0 of 5

CN1CC(=O)[O][Sn]([CH3])([CH3])[O]C(=O)C1
survivor count (dose: 60.0 mg/kg/injection, schedule: Q01DX005 (ip), vehicle: Klucel (hydroxypropylcellulose) (HPC)): 0 of 6
T/C [15]: 128 % of control
survivor count [15]: 2 of 6
survivor count [16]: 1 of 6
survivor count [1]: 0 of 6

CCOc1c2c(nn(C)c1=O)Oc1ccccc1N2CCCN1CCOCC1
survivor count [16]: 0 of 6
survivor count [1]: 0 of 6

O=C([Se]c1[se]c(=[Se])[se]c1[Se]C(=O)c1ccccc1)c1ccccc1
survivor count [14]: 6 of 6
survivor count [12]: 6 of 6

CCOC(=O)C(C)(C)c1nc[nH]c1[N+](=O)[O-]
survivor count [3]: 6 of 6

CCOC(=O)c1nnc(-c2ccccc2)nc1Cl
survivor count (dose: 240.0 mg/kg/injection, schedule: Q01DX005 (ip), vehicle: Klucel (hydroxypropylcellulose) (HPC)): 0 of 6

CCCCNP1(NCCCC)=NP(NCCCC)(NCCCC)=NP(NCCCC)(NCCCC)=NP(NCCCC)(NCCCC)=N1
T/C [13]: 127 and 128 % of control [5 of 6 alive]
survivor count [14]: 5 of 6
survivor count [12]: 1 of 6

CCSCCC(NC(=O)CN)C(=O)O (configuration not stated)
survivor count [9]: 0 of 6

O=S1(=O)OC2(c3ccccc31)c1cc(Br)c(O)c(O)c1Oc1c2cc(Br)c(O)c1O
survivor count [8]: 0 of 6, 1 of 6, 3 of 6
survivor count [9]: 0 of 6
survivor count (dose: 400.0 mg/kg/injection, schedule: Q01DX009 (ip), vehicle: saline): 0 of 6
survivor count (dose: 600.0 mg/kg/injection, schedule: Q01DX009 (ip), vehicle: saline): 0 of 6

O=C(O)C1=CC2C=C(Cl)C=CC2OC1=O (configuration not stated)
survivor count [1]: 0 of 6

CNC(=O)OCc1nc(SC)n(Cc2ccccc2)c1COC(=O)NC
T/C [12]: 129 % of control
T/C (dose: 400.0 mg/kg/injection, schedule: Q01DX005 (ip), vehicle: saline with Tween-80): 127 % of control

C[C@@H]1O[C@H]2O[C@@H]3[C@@H](C)O[C@@H](c4ccc5c(c4O)C(=O)c4ccc(C[C@@](C)(O)CC(=O)O)c(O)c4C5=O)C[C@H]3O[C@H]2CC1=O
survivor count (dose: 188.0 mg/kg/injection, schedule: Q01DX005 (ip), vehicle: Klucel (hydroxypropylcellulose) (HPC)): 3 of 6
